Data on 1 molecule can be found in paper PMC8391421, “Identification of Novel Positive Allosteric Modulators of Neurotrophin Receptors for the Treatment of Cognitive Dysfunction” (Cells, 2021).

The chains behind the UniProt entries cited, without tags or fusion partners. Residues count along the entry.
UniProt Q16620, residues 32-822: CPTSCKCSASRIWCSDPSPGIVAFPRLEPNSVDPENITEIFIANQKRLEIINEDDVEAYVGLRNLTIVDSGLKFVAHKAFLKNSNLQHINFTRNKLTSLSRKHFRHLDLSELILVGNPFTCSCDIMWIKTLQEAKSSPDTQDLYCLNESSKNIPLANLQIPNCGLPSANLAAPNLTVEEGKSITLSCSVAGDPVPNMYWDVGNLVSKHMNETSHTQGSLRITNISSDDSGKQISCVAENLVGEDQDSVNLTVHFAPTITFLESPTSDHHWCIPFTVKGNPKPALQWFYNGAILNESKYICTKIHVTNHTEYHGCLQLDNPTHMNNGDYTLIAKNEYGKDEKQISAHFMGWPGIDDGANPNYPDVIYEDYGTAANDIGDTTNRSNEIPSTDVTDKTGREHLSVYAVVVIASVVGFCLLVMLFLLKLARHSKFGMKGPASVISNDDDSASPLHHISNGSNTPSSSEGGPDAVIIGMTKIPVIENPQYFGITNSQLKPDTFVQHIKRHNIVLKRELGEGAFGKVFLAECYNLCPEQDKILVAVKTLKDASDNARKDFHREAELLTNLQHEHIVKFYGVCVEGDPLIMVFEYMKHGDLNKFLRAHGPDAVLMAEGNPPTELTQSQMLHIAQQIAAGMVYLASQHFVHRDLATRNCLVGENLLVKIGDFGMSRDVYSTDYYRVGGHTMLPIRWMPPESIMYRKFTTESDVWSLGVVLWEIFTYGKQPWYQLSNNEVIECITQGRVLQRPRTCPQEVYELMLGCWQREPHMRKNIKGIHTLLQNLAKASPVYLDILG

No constants are given. Whether binding was seen depends on the method and setting. In cells and extracts the contact can be indirect. Some results given as binding are weak or reduced against the parent protein; the word gives no strength. Tags and fused reporters may be left off the sequences shown.

The test has as its target TrkB (tropomyosin related kinase B receptor) fused to an enzyme donor tag, in U2OS-TrkB/p75 PathHunter cells (UniProt Q16620). The test is described as follows: split reporter; PathHunter β-galactosidase enzyme fragment complementation in U2OS-TrkA/p75 or U2OS-TrkB/p75 cells (5000 cells per well, 384-well plate, EMEM with 0.5% horse serum); Trk receptor fused to the enzyme donor, SHC-1 to the enzyme acceptor; stimulated with NGF or BDNF; luminescence read-out.

B1: SHC-1 fused to the enzyme acceptor (larger part of β-galactosidase), in PathHunter cells (protein, UniProt P29353 1-583)
chain: MDLLPPKPKYNPLRNESLSSLEEGASGSTPPEELPSPSASSLGPILPPLPGDDSPTTLCSFFPRMSNLRLANPAGGRPGSKGEPGRAADDGEGIVGAAMPDSGPLPLLQDMNKLSGGGGRRTRVEGGQLGGEEWTRHGSFVNKPTRGWLHPNDKVMGPGVSYLVRYMGCVEVLQSMRALDFNTRTQVTREAISLVCEAVPGAKGATRRRKPCSRPLSSILGRSNLKFAGMPITLTVSTSSLNLMAADCKQIIANHHMQSISFASGGDPDTAEYVAYVAKDPVNQRACHILECPEGLAQDVISTIGQAFELRFKQYLRNPPKLVTPHDRMAGFDGSAWDEEEEEPPDHQYYNDFPGKEPPLGGVVDMRLREGAAPGAARPTAPNAQTPSHLGATLPVGQPVGGDPEVRKQMPPPPPCPGRELFDDPSYVNVQNLDKARQAVGGAGPPNPAINGSAPRDLFDMKPFEDALRVPPPPQSVSMAEQLRGEPWFHGKLSRREAEALLQLNGDFLVRESTTTPGQYVLTGLQSGQPKHLLLVDPEGVVRTKDHRFESVSHLISYHMDNHLPIISAGSELCLQQPVERKL
B1: the binding entry is on record as “binds”.
